Data taken from US20030134779A1, “Method and composition for treatment and/or prevention of antibiotic-resistant microorganism infections” (priority 2002, published 2003).
Some results were stated once for a whole list of compounds, not compound by compound.

The compounds below were run on S. aureus strains (assay: MIC / FIC determination, summary over strains). Conditions: antibiotic in combination with LF.
Type: cell-based, Staphylococcus aureus
Source text: Staphylococcus aureus strains ATCC 25923 and 6538 and Escherichia coli ATCC 25922 were obtained from the American Type Culture Collection. Eight bovine mastitis clinical isolates of S. aureus (SHY97-3906, -3923, -4085 -4242, -4320 and -4343, RFT-1 and RFT-5) and one isolate of E. coli SHY97-3923-2 and one isolate of Kiebsiella pneumoniae SHY99-723-1 were kindly provided by the Laboratoire Provincial de Pathologie Animale of St-Hyacinthe and of Rock-Forest (Quebec, Canada), respectively. Nine β-lactam antibiotics resistant S. aureus strains (PC-1, NCTC 9789, 2076, 22260, ST79/741, 3804, RN9, FAR8, and FAR10) were obtained from Vanderbilt University School of Medicine (Nashville, Tenn., USA). All the culture media were from Difco Laboratories (Detroit, Mich.). Bacteria from frozen stock at −80° C. were streaked onto tryptic soy agar plates suplemented with 5% of defibrinated sheep blood (Quelab, Montreal, QC, Canada) or Brain Heart infusion agar plates. Plates were then incubated for 16 to 24 h at 37° C. […]
The MICs were determined by both macrodilution (1 ml/tube) and microdilution (100 μl/well) in sterile 96 well microtiter plates (International Nunc, Napierville, Ill.) techniques in three separate experiments according to the National Committee for Clinical Laboratory Standards (1992 and 1999) in three separate experiments. […] Effect of LF combination with antibiotic on MICs were determined by adding 0.5 mg or 1 mg/ml of LF to each antibiotic dilution. […] Effect of LF or LFC combination with antibiotic on MIC was also determined by checkerboard method using 96 well microtiter plates. […] Bacterial growth was measured optically at 540 nm using Spectra Max 250 Microplate Spectrophotometer System of Molecular Device (Fisher Scientific, Ottawa, Canada). Tubes were incubated at 37° C. for 18 h and bacterial growth was measured by visual examination and optically at 540 nm using a spectrophotometer (Philips PU 8800; Pye Unican Ltd, Cambridge, UK). The fractional inhibitory concentration (FIC) was calculated as described by Eliopoulos and Moellering (1991). […]
In the case of `CC[C@H]1OC(=O)[C@H](C)[C@@H](O[C@H]2C[C@@](C)(OC)[C@@H](O)[C@H](C)O2)[C@H](C)[C@@H](O[C@@H]2O[C@H](C)C[C@H](N(C)C)[C@H]2O)[C@](C)(O)C[C@@H](C)C(=O)[C@H](C)[C@@H](O)[C@]1(C)O` [erythromycin], the “effect between LF and antibiotic by FIC index” value is reported as “synergistic (synergistic or indifferent when FIC Index was<1 or>1, respectively)”.
With `CO[C@@H]1[C@@H](OC(N)=O)[C@@H](O)[C@H](Oc2ccc3c(O)c(NC(=O)c4ccc(O)c(CC=C(C)C)c4)c(=O)oc3c2C)OC1(C)C` [novobiocin] the “effect between LF and antibiotic by FIC index” value was “synergistic (synergistic or indifferent when FIC Index was<1 or>1, respectively)”.
For `CC1(C)S[C@@H]2[C@H](NC(=O)Cc3ccccc3)C(=O)N2[C@H]1C(=O)O` [penicillin G, Penicillin G], the “effect between LF and antibiotic by FIC index” value was “synergistic (synergistic or indifferent when FIC Index was<1 or>1, respectively)”.
